Measurements as given in US20250296956A1, “POLYPEPTIDE, PREPARATION METHOD, AND USE THEREOF” (Hunan University, priority 2022, published 2025).
Part of at least one peptide drawing is inferred or uncertain, most often the ends. Peptide text beside a SMILES is read from it.

Chains of the proteins cited; added tags and fusions are not shown. Residues count along the entry.
UniProt Q86U44, 2-580 limits assumed: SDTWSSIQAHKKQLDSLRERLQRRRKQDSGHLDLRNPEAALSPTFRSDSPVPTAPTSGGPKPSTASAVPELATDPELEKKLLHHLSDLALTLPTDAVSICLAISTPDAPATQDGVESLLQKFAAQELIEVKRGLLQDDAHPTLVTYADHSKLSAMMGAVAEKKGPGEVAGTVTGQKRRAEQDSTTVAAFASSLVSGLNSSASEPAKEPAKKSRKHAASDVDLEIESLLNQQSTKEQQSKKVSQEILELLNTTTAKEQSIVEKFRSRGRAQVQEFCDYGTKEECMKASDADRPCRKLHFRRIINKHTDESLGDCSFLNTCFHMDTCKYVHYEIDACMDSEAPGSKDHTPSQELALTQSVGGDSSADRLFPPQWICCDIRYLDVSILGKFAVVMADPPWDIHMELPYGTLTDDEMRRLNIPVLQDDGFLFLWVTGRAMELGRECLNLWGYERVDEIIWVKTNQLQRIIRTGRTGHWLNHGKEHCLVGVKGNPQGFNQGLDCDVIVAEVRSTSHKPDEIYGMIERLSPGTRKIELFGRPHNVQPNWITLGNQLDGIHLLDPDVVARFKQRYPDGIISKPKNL

Assays:
METTL3 = biological target: T1, METTL3 (Homo sapiens, UniProt Q86U44); assay: Inhibition of METTL3 expression in prostate cancer cells, immunoblot; type: cell-based; details: PC3 and DU145 cells, 20 μM, 24 hours
T1 construct: endogenous in cells; host or cells: PC3 and DU145 cells
Procedure: Referring to FIG. 4, a certain amount of polypeptide was weighed and dissolved into a 50 mM mother solution, the polypeptides R9, RM3, and RSM3 were prepared into a 50 mM mother solution with sterile pure water, after gradient dilution, the mother solution were added to a 6-well plate with PC3 and DU145 cells pre-laid, the final concentration of the polypeptide was 20 μM, 2 mL per well, and three replicates were used for each concentration. After 24 hours of treatment, the cells were lysed to extract cell proteins, and the proteins were separated by electrophoresis and transferred to a PVDF membrane, to incubate the primary antibody and secondary antibody of METTL3, and finally exposed for imaging.
In FIG. 4, GAPDH is an internal reference in the immunoblotting experiment (WB experiment).

RNA methylation = assay: Determination of RNA methylation (m6A) in prostate cancer cells, dot blot; type: cell-based, human; details: PC3 and DU145 cells, 12 hours
Procedure: In FIG. 3, MB is methylene blue staining, and m^6A is methylation content. 500 ng and 3000 ng are the loaded sample amounts of RNA in the experiment.

PC3 cells = assay: Growth/proliferation inhibition, CCK-8 and clone formation, PC3; type: cell-based, human; details: CCK-8 24 h, clone formation 7 days
Procedure: (§1) 5.1 Referring to FIG. 5A, the polypeptides R9, RM3, and RSM3 were prepared into a 50 mM mother solution with sterile pure water, and the mother solution was gradiently diluted with a basal culture medium, the diluted peptide solution was added to 96-well plates pre-laid with PC3 and DU145 cells, 100 μL per well, and three replicates for each concentration. After 24 h of treatment, the OD value at 450 nm was measured with a CCK-8 kit, and the results were calculated and analyzed.
(§2) FIG. 5B illustrates a clone formation experiment, the grown PC3 and DU145 cells were digested with 0.25% trypsin and the number of cells were counted, 300 cells were added to each well of the six-well plate, and 2 ml of complete culture medium was added to continue culturing for 24 hours. M3, R9, RM3, and RSM3 were added to each well and cultured for 7 days, the medium was discarded, the cells were washed, stained with crystal violet, and then microscopically photographed, and the number of the cells were counted.
(§3) Referring to FIG. 6, the above two polypeptides were prepared into a 50 mM mother solution with sterile pure water, and then gradiently diluted with a basal culture medium, the diluted peptide solution was added to a 96-well plate pre-laid with PC3 and DU145 cells, 100 μL per well, and three replicates for each concentration. […]

DU145 cells = assay: Growth/proliferation inhibition, CCK-8 and clone formation, DU145; type: cell-based, human; details: CCK-8 24 h, clone formation 7 days
Procedure: as §1, §2, §3

[1] = test system: PC3 prostate cancer cells with high expression of METTL3; assay: Anti-tumor experiment in vivo, PC3 prostate tumor-bearing mouse model; set-up: species or system BALB/c nude mice; details: peritumoral administration once every two days for two weeks
Procedure: (B) Anti-tumor experiment in vivo: a prostate tumor-bearing mouse model is selected, the specific steps to construct the animal model are as follows: PC3 prostate cancer cells with high expression of METTL3 were cultured to a logarithmic growth phase, the PC3 prostate cancer cells were digested, collected, and prepared into a cell suspension with a concentration of 1×10^7 cells/mL. 4 to 6 week-old male and female BALB/c nude mice were taken, and were injected with 100 μL of cell suspension into the back of the hind limbs, to establish a tumor model. After a diameter of the mouse tumor grows to about 0.5 cm, the mice were randomly divided into groups according to the experimental requirements: PBS, R9, RM3, RSM3, etc. Peritumoral administration is performed on the mice, once every two days, for two consecutive weeks.

CSCC[C@H](NC(=O)[C@H](CS)NC(=O)[C@H](CCCNC(=N)N)NC(=O)[C@H](CCCNC(=N)N)NC(=O)[C@H](CCCNC(=N)N)NC(=O)[C@H](CCCNC(=N)N)NC(=O)[C@H](CCCNC(=N)N)NC(=O)[C@H](CCCNC(=N)N)NC(=O)[C@H](CCCNC(=N)N)NC(=O)[C@H](CCCNC(=N)N)NC(=O)[C@@H](N)CCCNC(=N)N)C(=O)N[C@@H](CCC(=O)O)C(=O)N[C@@H](CC(C)C)C(=O)NCC(=O)N[C@@H](CCCNC(=N)N)C(=O)N[C@@H](CCC(=O)O)C(=O)N[C@@H](CS)C(=O)N[C@@H](CC(C)C)C(=O)N[C@@H](CC(N)=O)C(=O)N[C@@H](CC(C)C)C(=O)N[C@@H](Cc1c[nH]c2ccccc12)C(N)=O [RM3] (H-RRRRRRRRRCMELGRECLNLW-NH2)
inhibition of the expression of METTL3 (METTL3): inhibit the expression of METTL3
inhibition of RNA methylation (m6A) (RNA methylation): significantly inhibit the RNA methylation
inhibitory effect on the growth of prostate cancer cells (PC3 cells): good inhibitory effect
inhibitory effect on the growth of prostate cancer cells (DU145 cells): good inhibitory effect
tumor mass ([1]; compared with R9 group and PBS): significantly less
tumor volume changes [1]: significantly inhibit the increase in tumor volume
